The AC50 is the concentration at which the activity in the assay is half-maximal. Low values mean greater potency, high ones weaker potency.

A short description of the experiment: qHTS Assay for Lipid Storage Modulators in Drosophila S3 Cells.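 On cell number change: cells counted by Cell Tracker Red CMTPX staining in the red channel.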 The settings on record: BODIPY lipid droplet fluorescence, 18-24 h; for cell number change: measured here: cell count max response, cells fed with added oleic acid. The method, boiled down:
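Drosophila S3 cells loaded with oleic acid (400 uM, as added) and compounds at several concentrations; lipid droplets imaged by 488-nm laser-scanning cytometry, 500–530 nm intensity and object ratio to cell channel. Percent activity normalized to 20 uM Triacsin C.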

Where [1] appears, read: measured here: lipid fluorescence (Fed channel) AC50, cells fed with added oleic acid.
Setting [2] is: measured here: cell number channel AC50, cells fed with added oleic acid.

Some of the results follow. These are further read-outs of the screen, such as a control signal, another cell line or another target. No call is given for them. Compounds called inactive in the main read-out are mostly missing here. The note in brackets gives the kind of curve behind each potency; many fits are weak.

For `CC(C)COc1ccc(C(=O)N/C(=C\c2cccc([N+](=O)[O-])c2)C(=O)O)cc1`, the cell number change is -1.85%. The AC50 under setting [1] was 0.651 µM [falling, single point].

Turning to `CCn1c(N2CCC(Cc3ccccc3)CC2)nc2c1c(=O)[nH]c(=O)n2C`, the cell number change is -11.2%.

As for `NC(=O)NCCN1CCN(c2ncc(C(F)(F)F)cc2Cl)CC1`, the cell number change was -29.9%. Besides, the half-maximal activity concentration (AC50) under setting [2] was 0.58 µM [falling, full curve, poor fit].

On to `CSc1nsc(SCC(=O)Nc2ccc(O)c(C(=O)O)c2)n1`, for which the cell number change was found to be 10.3%. For the same molecule, the concentration at half-maximal activity (AC50) under setting [1] was 29.1 µM [rising, single point].

For the molecule `CC(Sc1ccc(S(=O)(=O)N2CCOCC2)cc1[N+](=O)[O-])C(=O)O` (centres undefined), the cell number change is 55.9%. Further, under setting [2], the AC50 was 0.116 µM [rising, full curve]. Further, the AC50 under setting [1] is 0.0731 µM [rising, full curve, poor fit].

For the molecule `CCOc1cc(-c2noc(N)c2C(=O)OC)cc(OCC)c1OCC`, the cell number change was -31.7%. Under setting [2], the AC50 is 0.184 µM [falling, full curve]. The AC50 under setting [1] is 0.231 µM [falling, full curve, poor fit].

`Cc1cc([N+](=O)[O-])cc2c1NCC1CC=CC21` (centres undefined): the AC50 under setting [1] is 29.1 µM [falling, single point].

With `Cc1nc(N)c(Cc2ccc(Cl)cc2Cl)c(N)n1`, the cell number change is -14.6%. For the same molecule, the AC50 under setting [1] is 0.58 µM [falling, full curve, poor fit].

Regarding `O=P1(c2ccccc2)C=Cn2c1cc1c2CCCC1` (centres undefined), the cell number change turned out to be 3.68%.

In the case of `c1ccc(CSc2nc3ncccn3n2)cc1`, the cell number change was -9.84%. In addition, the half-maximal activity concentration (AC50) under setting [1] was 25.9 µM [rising, single point].

For the molecule `O=c1c2ccccc2oc2cc(OCc3ccc(F)cc3)cc(O)c12`, the cell number change is 24.3%.

In the case of `COc1ccc(S(=O)(=O)N2CCN(C(=O)CCC3CCCC3)CC2)cc1`, the cell number change was 8.83%. Also, the half-maximal activity concentration (AC50) under setting [1] was 6.51 µM [rising, partial curve, poor fit].

Turning to `NC(=O)c1c[nH]c2ccccc12`, under setting [2], the half-maximal activity concentration (AC50) was 0.461 µM [falling, single point].

For `O=C(Cn1c2[n+](c3ccc(C(F)(F)F)cc31)CCCCC2)c1cccc([N+](=O)[O-])c1`, the AC50 runs as follows: under setting [2], 0.58 µM [rising, single point]; under setting [1], 0.58 µM [rising, single point].

Turning to `CC1(C)Cc2c(c(N3CCOCC3)nc3snc(Br)c23)CO1`, the cell number change came out at 8.12%.

With `CC[C@@H](C)[C@@H](C(=O)N1CCN(C(=O)OC(C)(C)C)CC1)n1cc(CCC(=O)O)nn1`, the AC50 under setting [1] is 6.51 µM [falling, single point].

As for `O=[N+]([O-])c1ccc2c(c1)nc1n2CCN(CC2CCCO2)C1` (centres undefined), the cell number change turned out to be 12%. Further, the AC50 under setting [1] was 29.1 µM [falling, partial curve].

Regarding `CCCCCCCCCC[n+]1cccc2c3ccccc3ccc21`, the cell number change was -84.1%. Also, the AC50 under setting [2] is 9.2 µM [falling, partial curve]. Further, the half-maximal activity concentration (AC50) under setting [1] was 5.17 µM [falling, partial curve].

Turning to `Cc1ccc(CCNC(=O)C2CCN(S(=O)(=O)c3cccc4cccnc34)CC2)cc1`, the AC50 under setting [1] was 5.8 µM [rising, single point].

For `C/C(=C/c1ccccc1)C(=O)N1CCN(c2ccccc2)CC1`, the cell number change worked out at 9.34%. The concentration at half-maximal activity (AC50) under setting [1] is 20.6 µM [rising, partial curve].

As to `CC(NS(=O)(=O)c1ccccc1)C(N)=O` (centres undefined), the cell number change was -22.4%. Under setting [1], the concentration at half-maximal activity (AC50) is 4.61 µM [falling, single point].

`CCOC(=O)C1CCCN(C(=O)c2cc(-c3ccc(C)cc3)on2)C1` (centres undefined): the cell number change was -0.647%. Moreover, the AC50 under setting [1] is 29.1 µM [falling, single point].

For `O=C(c1cccc2ccccc12)N1CCC(N2CCN(c3ccccc3)CC2)CC1`, the cell number change is -0.594%. For the same molecule, under setting [2], the half-maximal activity concentration (AC50) was 1.84 µM [falling, partial curve, poor fit]. Further, under setting [1], the AC50 is 2.06 µM [falling, single point].

For `COc1ccc(-n2nc(C(=O)NCC(=O)N3CCN(Cc4ccccc4)CC3)c3ccccc3c2=O)cc1OC`, the cell number change came to 24.6%. Under setting [1], the half-maximal activity concentration (AC50) was 6.51 µM [rising, single point].

For the molecule `CC1CCc2c(sc(NC(=O)C3CCCO3)c2C#N)C1` (centres undefined), the cell number change came to 21.6%. For the same molecule, the AC50 under setting [2] was 0.461 µM [rising, full curve, poor fit].

As to `CC(=O)N1CCN(C(=O)Cn2c(=O)oc3ccccc32)CC1`, the cell number change was 3.94%. In addition, the AC50 under setting [1] was 29.1 µM [falling, single point].

Take `COc1ccc(OC)c(C(C)NC(=O)C23CC4CC(CC(C4)C2)C3)c1` (centres undefined): the cell number change is -17.5%. Moreover, the AC50 under setting [1] was 29.1 µM [falling, single point].

For the molecule `CC(C)C(c1nnnn1Cc1ccco1)N1CCN(c2cccc(Cl)c2)CC1` (centres undefined), the cell number change was -13.1%.

On to `COc1ccc2c(c1)CCN1C2CCN2C(=O)CCC21` (centres undefined), for which the cell number change stood at 1.48%. Also, the AC50 under setting [1] was 0.82 µM [falling, single point].

In the case of `O=C(CCc1nnc2ccc(N3CCC4(CC3)OCCO4)nn12)N1CCCCC1`, the cell number change came out at 9.48%. Besides, the concentration at half-maximal activity (AC50) under setting [2] was 0.00461 µM [rising, full curve, poor fit].

Turning to `Cc1ccc(NC(=O)CN(C)C(=O)c2cc(C)on2)cc1`, the cell number change is -1.23%. Moreover, the AC50 under setting [1] was 29.1 µM [falling, single point].

For the molecule `O=C(CNC(=O)c1ccccc1)N/N=C/c1cc(Br)ccc1O`, the cell number change was -26.7%. Besides, under setting [2], the AC50 was 0.731 µM [falling, full curve, poor fit]. Also, the half-maximal activity concentration (AC50) under setting [1] is 2.06 µM [falling, partial curve, poor fit].

As for `Cc1ccc(C(=O)COC(=O)CCS(=O)(=O)c2ccccc2)cc1[N+](=O)[O-]`, the cell number change was 14.6%. Under setting [1], the AC50 is 0.259 µM [rising, full curve].

On to `CCOC(=O)C1(Nc2nccs2)Sc2ccccc2NC1=O` (centres undefined), for which the cell number change was -8.66%. The AC50 under setting [1] is 0.0731 µM [falling, full curve, poor fit].

`Cc1ccc(C(=O)CCC(=O)OC(C)C(=O)NC2CCCCC2C)cc1` (centres undefined): the cell number change is -7.92%. In addition, under setting [2], the AC50 was 0.082 µM [falling, full curve, poor fit].

Take `CCn1ncc(C2=NOC(C(=O)NCc3ccc(OC)cc3)C2)c1C` (centres undefined): the cell number change is 1.8%. For the same molecule, under setting [2], the concentration at half-maximal activity (AC50) was 6.51 µM [falling, single point]. In addition, the concentration at half-maximal activity (AC50) under setting [1] is 6.51 µM [falling, single point].

As for `CCOc1cc(/C=C2\C(=N)N3N=C(C)SC3=NC2=O)ccc1OCCOc1cccc(OC)c1`, the cell number change is -3.52%.

`N/C(Cc1ccc(Cl)cc1Cl)=N\OC(=O)c1ccccc1`: the cell number change is -18.6%. In addition, under setting [1], the AC50 is 18.4 µM [falling, single point].

Turning to `Cc1ccc(C(=O)N/C(=C\c2ccc(-c3ccccc3[N+](=O)[O-])o2)C(=O)NCCCN2CCOCC2)cc1`, the cell number change is -1.14%.

Regarding `COc1ccc([C@@H]2[C@@H]3C(=O)N(C(C)(C)C)C(=O)[C@@H]3[C@]3(C)C(=O)N(c4cccc(C)c4)C(=O)N23)cc1`, the cell number change stood at 16.2%.

`NS(=O)(=O)c1ccc(CNS(=O)(=O)Cc2ccc(Cl)cc2)cc1`: the cell number change was -29.6%. Moreover, the half-maximal activity concentration (AC50) under setting [1] is 4.61 µM [falling, single point].

`Nc1nc(C(F)(F)F)cc(=O)n1N`: the cell number change is -94.9%. Also, under setting [2], the AC50 is 25.9 µM [falling, partial curve, poor fit]. The AC50 under setting [1] was 29.1 µM [falling, partial curve, poor fit].

Consider `COC(=O)CSC1=C(C#N)C(c2cccc(F)c2)CC(=O)N1` (centres undefined), for which the cell number change was -6.67%.

`COc1cc(OC)cc(C(=O)N[C@H](C(=O)OCC(=O)Nc2ccc(F)c(F)c2)C(C)C)c1`: the cell number change is 41.6%. Further, the AC50 under setting [2] was 6.51 µM [rising, partial curve, poor fit]. Besides, under setting [1], the AC50 is 25.9 µM [rising, partial curve].

Take `Cn1c(=O)n(CCCOc2ccc(Cl)cc2)c2ccccc21`: the AC50 under setting [1] is 0.58 µM [falling, single point].

As for `O=C1NCCCc2c1no[n+]2[O-]`, the cell number change was -50.8%. Also, under setting [2], the half-maximal activity concentration (AC50) was 13 µM [falling, partial curve, poor fit]. The AC50 under setting [1] is 29.1 µM [falling, single point].

As to `CCc1nnc(NS(=O)(=O)c2ccc(NC(=S)NC(=O)/C=C/c3ccc(C(C)C)cc3)cc2)s1`, the cell number change was -26.4%.

`CCCCCCn1c(SCC(C)C)nc2c1c(=O)[nH]c(=O)n2C`: the cell number change worked out at 36%. Also, the AC50 under setting [2] was 29.1 µM [rising, single point]. The AC50 under setting [1] is 20.6 µM [rising, single point].

As to `CCc1cc(/C(Cc2cscn2)=N\O)c(O)cc1O`, the cell number change was -15.5%. Also, under setting [2], the AC50 was 7.31 µM [falling, single point].

`CC(C)(C)C(=O)CSc1ncnc2sc3c(c12)CCC3`: the concentration at half-maximal activity (AC50) under setting [1] is 29.1 µM [rising, single point].

As to `O=C(c1ccncc1)N1CCN(S(=O)(=O)c2cccc(C(F)(F)F)c2)CC1`, the cell number change is 13.3%.

In the case of `O=C(O)[C@@H]1CCCN1C(=O)c1ccco1`, the cell number change was -34.3%. Also, the concentration at half-maximal activity (AC50) under setting [2] is 0.0231 µM [falling, full curve, poor fit]. For the same molecule, the concentration at half-maximal activity (AC50) under setting [1] is 1.16 µM [falling, full curve].

Consider `Cc1nnn(C23CC4CC(CC(CC(=O)Nc5ccc(C)c(C)c5)(C4)C2)C3)n1`, for which the cell number change was -8.07%. Moreover, the half-maximal activity concentration (AC50) under setting [1] was 16.4 µM [falling, single point].

As for `Cc1cc([N+](=O)[O-])nn1CC(=O)Nc1nccs1`, the cell number change was -52.9%. For the same molecule, the AC50 under setting [2] was 1.46 µM [falling, partial curve]. Besides, the AC50 under setting [1] is 29.1 µM [falling, single point].

Turning to `COc1ccc(N2CCN(C(=O)COC(=O)c3oc4ccccc4c3C)CC2)cc1`, the cell number change was -8.17%.

As to `CCC1(CC)NC(=O)N(CC(=O)OCC(=O)Nc2ccccc2[N+](=O)[O-])C1=O`, the cell number change was -31.9%. Besides, under setting [2], the AC50 was 6.51 µM [falling, partial curve]. For the same molecule, under setting [1], the half-maximal activity concentration (AC50) is 13 µM [falling, partial curve, poor fit].

Regarding `O=C(NC(=S)Nc1ccccc1O)c1ccc(-c2ccc(Cl)cc2)o1`, the cell number change is -65.3%. Moreover, the half-maximal activity concentration (AC50) under setting [2] was 18.4 µM [falling, single point]. For the same molecule, the AC50 under setting [1] is 29.1 µM [falling, single point].

Turning to `Cc1ccc(N=c2c([N+](=O)[O-])nn(-c3ccc4c(c3)OCCO4)n2O)c(Cl)c1`, the cell number change is -26.5%. Further, under setting [2], the AC50 was 0.731 µM [rising, partial curve, poor fit].

On to `Cc1ccc(S(=O)(=O)N2CCCCC2CCNC(=O)C(=O)NCc2ccco2)cc1` (centres undefined), for which the AC50 under setting [2] is 0.092 µM [rising, full curve, poor fit] and the half-maximal activity concentration (AC50) under setting [1] is 0.103 µM [rising, full curve, poor fit].

The values are drawn from PubChem BioAssay AID2685 (National Center for Advancing Translational Sciences (NCATS), 2010).
